The filed quantity is “Percent Effect” (%). The controls that fix the scale are not given in the record; negative values are as filed. The compounds are a random part of those screened. Two or more numbers in one place are separate tests of the same structure; such repeats can differ widely.

Mtb glucose medium: 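Growth of Mycobacterium tuberculosis over 3 days (7H9 medium with glucose and tyloxapol); the read-out is not stated. Tested at 50 µM. The record gives no direction; compounds that gave an IC50 in retests scored well above the rest, so higher reads as more growth inhibition. Of about 69,000 compounds tested this way, about 760 (1.1%) reached 50% or more in at least one test.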
Mtb cholesterol medium: 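Growth of Mycobacterium tuberculosis over 4 days (cholesterol / DPPC medium with tyloxapol); the read-out is not stated. Concentration: 50 µM. The record gives no direction; compounds that gave an IC50 in retests scored well above the rest, so higher reads as more growth inhibition. Size under these conditions: about 69,000 compounds, about 370 of them at 50% or above in at least one test.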

For O=C(O)C(F)(F)F.O=C1CCC2(CCN(c3ncc(F)cn3)CC2)N1Cc1ccncc1 the result was Mtb glucose medium: -5.927% & 5.811%; Mtb cholesterol medium: -27.52% & -13%. Result for COC(=O)[C@H](C)NC(=O)c1nc(C2CC2)n(-c2ccccc2Cl)n1 was Mtb glucose medium: 0.7093% & 8.345%; Mtb cholesterol medium: -14.59%. CS(=O)(=O)N1CCN(C(=O)C2CSCCC(=O)N2)CC1 (stereo not given) gave Mtb glucose medium: -17.05%; Mtb cholesterol medium: -19.81%. For CN(C)c1ccc(C(=O)N2CCCC2c2noc(C3CC3)n2)nn1 (stereo not given) the result was Mtb glucose medium: -31.42%; Mtb cholesterol medium: -14.7%. With CC(C)(O)CCc1cccc(C(=O)N2CCC3(CCOCC3)CC2)c1 the screen gave Mtb glucose medium: -9.35%; Mtb cholesterol medium: -13.71%. Cc1ccc(NC(=O)C2CCCN2C(=O)C2CC2)nc1 (stereo not given) gave Mtb glucose medium: 8.882%; Mtb cholesterol medium: 13.36%.

O=S(=O)(C1CC1)N1CCC2(CCCN(Cc3ccccn3)C2)CC1 gave Mtb glucose medium: 14.83%; Mtb cholesterol medium: 13.37%. O=C(NCc1cnc2n1CCN(CC1CC1)C2)C1CC1.O=C(O)C(F)(F)F read Mtb glucose medium: -36.44%; Mtb cholesterol medium: -17.41%. With O=C(COc1coc(CN2CCCCC2)cc1=O)Nc1ccccc1Cl the screen gave Mtb glucose medium: 19.35%; Mtb cholesterol medium: 13.63%. O=C1N(Cc2ccc(F)c(F)c2)CCCC1(O)CNCC1CCCCC1 (stereo not given) read Mtb glucose medium: 17.97%; Mtb cholesterol medium: -0.1458%. With CC(C)=CCCC1(C)CCC(=O)N(CCc2nc(N)cc(O)n2)C1 (stereo not given) the screen gave Mtb glucose medium: 12.4%; Mtb cholesterol medium: 9.929%. Result for CN(C)C(=O)Cc1ccc(NC(=O)c2cn(C)nn2)cc1 was Mtb glucose medium: 11.02%; Mtb cholesterol medium: 11.26%.

O=S(=O)(Cc1ccccc1F)NCCCN1CCCCC1 gave Mtb glucose medium: -2.759%; Mtb cholesterol medium: -5.781%. For Cc1noc(C)c1CN1CCC2(CC1)CC(Oc1cccnc1)C2.O=C(O)C(F)(F)F.O=C(O)C(F)(F)F the result was Mtb glucose medium: 8.987% & -4.946%; Mtb cholesterol medium: 17.94%. Result for CN1C(=O)C(c2ccccc2)CC12CCN(CCO)CC2.O=C(O)C(F)(F)F (stereo not given) was Mtb glucose medium: -2.14%; Mtb cholesterol medium: -26.3%. COCCN1CCC(CN(CC2CCCO2)C(=O)COC)CC1 (stereo not given) read Mtb glucose medium: -3.87% & -7.482%; Mtb cholesterol medium: -11.89%. Result for COc1ccc(N2Cc3nc(N)ncc3C2=O)cc1 was Mtb glucose medium: -29.22%; Mtb cholesterol medium: -13.14%. With O=C(CN1CCCS1(=O)=O)Nc1cccc(COC2CCCCC2)c1 the screen gave Mtb glucose medium: 32.21%; Mtb cholesterol medium: -2.529%.

For Cc1cnn(CCNCc2csc(-c3ccco3)n2)c1 the result was Mtb glucose medium: 0.4375%; Mtb cholesterol medium: -8.804%. COc1ccccc1-c1ncc(CN2CCCC(CCC(N)=O)C2)s1 (stereo not given) read Mtb glucose medium: 30.79%; Mtb cholesterol medium: 20.71%. With Cn1cc(C(=O)CC2CCCN2C(=O)c2ccc(Cl)cn2)cn1 (stereo not given) the screen gave Mtb glucose medium: 3.626% & -18.93%; Mtb cholesterol medium: -9.056%. With CC(C)C(C(=O)N1CCCN(Cc2cnn(C)c2)CC1)n1cncn1 (stereo not given) the screen gave Mtb glucose medium: -5.181%; Mtb cholesterol medium: 2.381%. Result for c1cnnc(-c2noc(CCN3CCCO3)n2)c1 was Mtb glucose medium: -4.501%; Mtb cholesterol medium: -6.732%. Result for O=C(O)C(F)(F)F.[H][C@@]12OCCN(S(=O)(=O)C3CC3)[C@@]1([H])CC[C@@H]2Oc1ncccc1F was Mtb glucose medium: -13.96%; Mtb cholesterol medium: -2.278%.

CC(C)N(C)Cc1cncc2c1CCN(C(=O)c1ccc[nH]1)C2.Cl.Cl read Mtb glucose medium: 4.225% & -6.824%; Mtb cholesterol medium: 15.68%.

3 of the entries, repeated:

structure	Mtb glucose medium	Mtb cholesterol medium
O=C(CN1CCCS1(=O)=O)Nc1cccc(COC2CCCCC2)c1	32.21%	-2.529%
CC(C)C(C(=O)N1CCCN(Cc2cnn(C)c2)CC1)n1cncn1 (stereo not given)	-5.181%	2.381%
Cc1noc(C)c1CN1CCC2(CC1)CC(Oc1cccnc1)C2.O=C(O)C(F)(F)F.O=C(O)C(F)(F)F	8.987% & -4.946%	17.94%

Measurements from “University of Dundee, Small-Polar-MMV Screening Library” (2021), ChEMBL document CHEMBL3988442.